Publication PMC6445127, “WNT5A is transported via lipoprotein particles in the cerebrospinal fluid to regulate hindbrain morphogenesis” (Nature Communications, 2019)
These are yes or no findings as the source states them, for the method shown. In cells and extracts the contact can be indirect. These calls come from enrichment with a bait or labelling near it, and not all partners need be listed. Where a sequence is shown, tags or fusion partners need not be part of it.

Biological target: T1, mouse V5-tagged WNT5A, secreted by TR-CSFB cells (mouse) (UniProt P22725)
T1 sequence: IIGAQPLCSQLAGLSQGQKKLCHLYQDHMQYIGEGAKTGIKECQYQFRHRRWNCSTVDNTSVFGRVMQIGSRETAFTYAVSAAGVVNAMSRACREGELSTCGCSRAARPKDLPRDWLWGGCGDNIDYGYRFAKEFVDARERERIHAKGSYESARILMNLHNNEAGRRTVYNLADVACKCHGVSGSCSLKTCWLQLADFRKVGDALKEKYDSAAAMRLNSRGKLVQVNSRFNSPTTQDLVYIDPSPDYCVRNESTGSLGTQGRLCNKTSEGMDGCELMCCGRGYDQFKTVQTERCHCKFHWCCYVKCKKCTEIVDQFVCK
Assay: affinity purification with mass spectrometry; WNT5A-V5 pull-down from conditioned medium of TR-CSFB cells; on-bead trypsin digest, LC-MS/MS, search against UniProtKB mouse

Substance	binding
Vitamin D-binding protein	binds
Apolipoprotein A-II	binds
Apolipoprotein A-I	binds
